Organism: Cavia porcellus
Test: In vitro evaluation on guinea pig trachea. EC50 which is the molar concentration required to give 50% inhibition of the isoproterenol response (1x10E-6M) was determined.
Assay type: functional
Settings: read-out: ED50 (the source's name)
Method in brief: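 Isolated guinea pig tracheal spirals were held at 1.50 g initial tension (resting 0.4–0.6 g) in Tyrode at 37 °C, gassed with O2/CO2 95:5, and contracted with acetylcholine 3 × 10^-6 M. Antagonist was added 15 min before Ach. Isoproterenol 3 × 10^-8 to 3 × 10^-6 M was added at maximal contraction. EC50 came from four points, with ≥4 preparations per group.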

EC50: 10.1 nM
SMILES: CC(C)NCC(O)COc1cccc2ccccc12 (stereo unspecified) [PROPRANOLOL]

Reference: ChEMBL document CHEMBL1122673, “Synthesis of a novel series of (aryloxy)propanolamines: new selective beta 2-blocking agents” (J Med Chem, 1984)
